No constants are given. Whether binding was seen depends on the method and setting. Some entries that bind do so weakly or less than the wild type.
Tests used:
EpCAM [1] = target: T1, EpCAM (UniProt P16422); assay: phage ELISA on coated antigen after panning of 1SS libraries
T1 sequence (looked up): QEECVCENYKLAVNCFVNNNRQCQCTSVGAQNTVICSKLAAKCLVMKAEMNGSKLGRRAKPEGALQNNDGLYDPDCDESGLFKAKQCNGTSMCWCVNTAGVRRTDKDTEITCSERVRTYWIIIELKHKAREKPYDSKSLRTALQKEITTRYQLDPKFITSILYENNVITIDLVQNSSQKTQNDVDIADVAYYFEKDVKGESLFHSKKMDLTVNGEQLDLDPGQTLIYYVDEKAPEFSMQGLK

The chains behind the UniProt entries cited, without tags or fusion partners. Where a name states a change or a piece, a line headed by the entry shows the natural chain unless it says otherwise. A line that says so, or that is headed by a name, gives the form on record, which may keep a tag or linker.
human VEGF (P15692, form named): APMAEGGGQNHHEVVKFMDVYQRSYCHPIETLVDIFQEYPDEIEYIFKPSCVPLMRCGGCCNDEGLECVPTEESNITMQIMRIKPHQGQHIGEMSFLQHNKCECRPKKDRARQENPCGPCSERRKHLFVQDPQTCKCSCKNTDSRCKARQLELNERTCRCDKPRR

EpCAM [2] = target: T1, EpCAM; assay: affinity selection of phage peptide libraries against EpCAM (EpCam 1)
EpCAM [3] = target: T1, EpCAM; assay: affinity selection of phagemid libraries against EpCAM (EpCam 2)
human VEGF (human) = human VEGF (human) (UniProt P15692); assay: phage ELISA on coated antigen after panning of 1SS libraries

B1: sNG0018S3.019 (peptide)
peptide: RAGITCHGHLCWPITD
binding (EpCAM [1]): binds | binding (EpCAM [2]): binds

B2: sNG0018S3.014 (peptide)
peptide: RPALKCIGTLCSLANP
binding (EpCAM [1]): binds | binding (EpCAM [2]): binds

B3: sNG0018S3.012 (peptide)
peptide: PHGLWCHGSLCHYPLA
binding (EpCAM [1]): binds | binding (EpCAM [2]): binds

B4: sNG0018S3.007 (peptide)
peptide: PHGLICAGSICFWPPP
binding (EpCAM [1]): binds | binding (EpCAM [2]): binds

B5: sNG0018S3.011 (peptide)
peptide: PRNLTCYGQICFQSQH
binding (EpCAM [1]): binds | binding (EpCAM [2]): binds

B6: sNG0018S3.021 (peptide)
peptide: PHNLACQNSICVRLPR
binding (EpCAM [1]): binds | binding (EpCAM [2]): binds

B7: sNG0018S3.006 (peptide)
peptide: PHGLTCTNQICFYGNT
binding (EpCAM [1]): binds | binding (EpCAM [2]): binds

B8: … (peptide)
peptide: HSLTCYGQICWVSNI
binding (EpCAM [3]): binds

B9: … (peptide)
peptide: PALRCLGQLCWVTPT
binding (EpCAM [3]): binds

B10: sNG0017S3.021 (peptide)
peptide: SYICHNCLLS
binding (EpCAM [1]): binds

B11: … (peptide)
peptide: PGLRCLGTLCWVPNR
binding (EpCAM [3]): binds

B12: … (peptide)
peptide: RNLTCWNTVCYAYPN
binding (EpCAM [3]): binds

B13: … (peptide)
peptide: RGLKCLGQLCWVSSN
binding (EpCAM [3]): binds

B14: … (peptide)
peptide: RNLECLGNVCSLLNQ
binding (EpCAM [3]): binds

B15: … (peptide)
peptide: RGLKCSGHLCWVTPQ
binding (EpCAM [3]): binds

B16: … (peptide)
peptide: HGLTCHNTVCWVHHP
binding (EpCAM [3]): binds

B17: … (peptide)
peptide: HTLECLGNICWVINQ
binding (EpCAM [3]): binds

B18: … (peptide)
peptide: HGLTCYNQICWAPRP
binding (EpCAM [3]): binds

B19: sNG0017S3.017 (peptide)
peptide: LRCWGMLCYA
binding (EpCAM [1]): binds | binding (EpCAM [2]): binds

B20: … (peptide)
peptide: HGLACYNQLCWVNPH
binding (EpCAM [3]): binds

B21: … (peptide)
peptide: RGLACQGNICWRLNP
binding (EpCAM [3]): binds

B22: … (peptide)
peptide: RAITCLGTLCWPTSP
binding (EpCAM [3]): binds

B23: sNG0017S3.022 (peptide)
peptide: LRCIGQICWR
binding (EpCAM [1]): binds | binding (EpCAM [2]): binds

B24: sNG0017S3.024 (peptide)
peptide: LKCLYNICWV
binding (EpCAM [1]): binds | binding (EpCAM [2]): binds

B25: sNG0018S3.015 (peptide)
peptide: RPGMACSGQLCWLNSP
binding (EpCAM [1]): binds | binding (EpCAM [2]): binds

B26: sNG0018S3.018 (peptide)
peptide: PHALQCYGSLCWPSHL
binding (EpCAM [1]): binds | binding (EpCAM [2]): binds

B27: sNG0017S3.006 (peptide)
peptide: LFCWGNVCHF
binding (EpCAM [1]): binds | binding (EpCAM [2]): binds

B28: sNG0017S3.009 (peptide)
peptide: LTCWGQVCFR
binding (EpCAM [1]): binds | binding (EpCAM [2]): binds

B29: sNG0017S3.011 (peptide)
peptide: RCPSRVPWCV
binding (EpCAM [1]): binds

B30: sNG0018S3.009 (peptide)
peptide: QLVCGFSDSSRLCYMR
binding (EpCAM [1]): binds

B31: sNG0018S3.022 (peptide)
peptide: LLCYITSPGNRLCSPY
binding (EpCAM [1]): binds

B32: sNG0025S3.021 (peptide)
peptide: WECTQHWCPS
binding (human VEGF (human)): binds

B33: sNG0026S3.035 (peptide)
peptide: APFFSCSFGFCRDLQT
binding (human VEGF (human)): binds

B34: sNG0026S3.045 (peptide)
peptide: TPYFRCQFGFCFDSFS
binding (human VEGF (human)): binds

B35: sNG0026S3.029 (peptide)
peptide: NPFFYCVAGKCVDAPL
binding (human VEGF (human)): binds

B36: sNG0026S3.034 (peptide)
peptide: DMRFLCRHGKCHDLPL
binding (human VEGF (human)): binds

B37: sNG0026S3.043 (peptide)
peptide: PPFFVCSLGKCRDAHL
binding (human VEGF (human)): binds

B38: sNG0026S3.053 (peptide)
peptide: PPQFQCVRGKCFDLTF
binding (human VEGF (human)): binds

B39: sNG0026S3.006 (peptide)
peptide: ISTFFCSNGSCVDVPA
binding (human VEGF (human)): binds

B40: sNG0026S3.051 (peptide)
peptide: PPHFRCFNGSCVDLSR
binding (human VEGF (human)): binds

B41: sNG0026S3.040 (peptide)
peptide: NVHFWCHNHKCHDLVS
binding (human VEGF (human)): binds

B42: sNG0026S3.038 (peptide)
peptide: LFFKCDVGHGCYDIKH
binding (human VEGF (human)): binds

B43: sNG0026S3.002 (peptide)
peptide: LYFQCFPNRGCSTLQP
binding (human VEGF (human)): binds

B44: sNG0026S3.052 (peptide)
peptide: PSFFCSPLLGCRDSLS
binding (human VEGF (human)): binds

B45: sNG0026S3.032 (peptide)
peptide: GTPRCNPFRQFCAIPS
binding (human VEGF (human)): binds

B46: sNG0025S3.016 (peptide)
peptide: LCLPLGRWCP
binding (human VEGF (human)): binds

B47: sNG0026S3.058 (peptide)
peptide: TSPACNPFRHFCTLPT
binding (human VEGF (human)): binds

B48: sNG0026S3.046 (peptide)
peptide: QPPICNPFRQLCGIPL
binding (human VEGF (human)): binds

B49: sNG0026S3.027 (peptide)
peptide: VHTFCNPFRQMCSLPM
binding (human VEGF (human)): binds

B50: sNG0026S3.001 (peptide)
peptide: RMVNCNPFNSWCSLPS
binding (human VEGF (human)): binds

B51: sNG0026S3.047 (peptide)
peptide: SKHMCNPFHSWCGVPL
binding (human VEGF (human)): binds

B52: sNG0026S3.056 (peptide)
peptide: RWPVCNPFLGYCGIPN
binding (human VEGF (human)): binds

B53: sNG0026S3.059 (peptide)
peptide: SKPTCNVFNSWCSVPL
binding (human VEGF (human)): binds

B54: sNG0026S3.004 (peptide)
peptide: RPPACNLFLSWCSYDS
binding (human VEGF (human)): binds

B55: sNG0026S3.011 (peptide)
peptide: GRSVCNPYKSWCPVRQ
binding (human VEGF (human)): binds

B56: sNG0026S3.055 (peptide)
peptide: ASSCKDSPHFRCLFPL
binding (human VEGF (human)): binds

B57: sNG0026S3.024 (peptide)
peptide: LANCPNSPGFLCLHAV
binding (human VEGF (human)): binds

B58: sNG0026S3.005 (peptide)
peptide: PFACPHSSGFRCLYNI
binding (human VEGF (human)): binds

B59: sNG0026S3.054 (peptide)
peptide: SFTCSLFPSPHCTTLR
binding (human VEGF (human)): binds

B60: sNG0026S3.050 (peptide)
peptide: LRLCTYGGGKYDCSST
binding (human VEGF (human)): binds

B61: sNG0026S3.048 (peptide)
peptide: GSYCQYRPFSSFCNRS
binding (human VEGF (human)): binds

B62: sNG0025S3.001 (peptide)
peptide: CSYNQVLGRAC
binding (human VEGF (human)): binds

B63: sNG0026S3.057 (peptide)
peptide: PHCRQHPLDRWMCSPS
binding (human VEGF (human)): binds

B64: sNG0026S3.007 (peptide)
peptide: SLCSMFGDTPHWNCVP
binding (human VEGF (human)): binds

B65: sNG0026S3.008 (peptide)
peptide: SSCSLFNNTRHWSCTD
binding (human VEGF (human)): binds
